Measured values published in patent US20240034804A1 (BIORAY PHARMACEUTICAL, published 2024).
These are yes or no findings as the source states them, for the method shown. Some binding calls cover weakened binding; strength is not graded here.

Sequences of proteins named here, by UniProt entry; tags and fusion partners are left off. A change or cut given only in a name is not applied to a line headed by its entry. A line that says so, or that is headed by a name, gives the form on record, which may keep a tag or linker.
biotin-labeled SIRPα (V8) (Acrobiosystems, Cat. No. SI8-H82W6) (P78324, form named): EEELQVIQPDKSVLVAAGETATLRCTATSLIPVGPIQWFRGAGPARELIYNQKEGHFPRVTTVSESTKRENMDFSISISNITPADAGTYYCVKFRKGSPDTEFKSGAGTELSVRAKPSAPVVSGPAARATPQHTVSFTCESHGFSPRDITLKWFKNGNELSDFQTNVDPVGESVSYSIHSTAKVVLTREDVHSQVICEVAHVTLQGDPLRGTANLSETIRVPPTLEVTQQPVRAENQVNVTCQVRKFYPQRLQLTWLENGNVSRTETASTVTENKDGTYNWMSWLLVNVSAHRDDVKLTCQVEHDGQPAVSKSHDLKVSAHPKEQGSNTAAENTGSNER
biotin-labeled SIRPα (V2) (Acrobiosystems, Cat. No. SI2-H82W8) (P78324, form named): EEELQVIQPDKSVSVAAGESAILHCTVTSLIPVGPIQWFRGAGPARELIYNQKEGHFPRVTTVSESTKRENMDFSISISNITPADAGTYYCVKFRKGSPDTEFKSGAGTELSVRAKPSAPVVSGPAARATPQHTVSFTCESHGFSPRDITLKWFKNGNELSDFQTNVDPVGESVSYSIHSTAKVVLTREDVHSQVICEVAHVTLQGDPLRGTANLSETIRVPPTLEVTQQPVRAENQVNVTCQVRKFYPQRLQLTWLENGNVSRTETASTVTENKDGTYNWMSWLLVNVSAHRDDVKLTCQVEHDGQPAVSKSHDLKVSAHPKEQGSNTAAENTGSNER

Tests used:
[1] = biological target: biotin-labeled SIRPα (V8) (Acrobiosystems, Cat. No. SI8-H82W6) (human) (UniProt P78324); experiment: competition ELISA: coated CD47-Fc, biotin-labeled SIRPα (V8) plus antibody dilutions, HRP-streptavidin, OD450
[2] = biological target: biotin-labeled SIRPα (V2) (Acrobiosystems, Cat. No. SI2-H82W8) (human) (UniProt P78324); experiment: competition ELISA: coated CD47-Fc, biotin-labeled SIRPα (V2) plus antibody dilutions, HRP-streptavidin, OD450

B1: #14 antibody (humanized anti-SIRPα antibody) (antibody, human IgG1, kappa, N297A, V domains shown)
VH: QVQLQESGPGLVKPSQTLSLTCTVSGGSISSGYYWSWIRQHPGKGLEWIGYISYDGSRYNNPSLKNRVTISVDTSKNQFSLKLSSVTAADTAVYYCAREEYANYFAYWGQGTTVTVSS
VL: DIVMTQSPDSLAVSLGERATINCKSSQSLFYSSNQKNFLAWYQQKPGQPPKLLIYWASTRESGVPDRFTGSGSGTDFTLTISSVKAEDLAVYYCQQYYSYPPTFGQGTKLEIKR
With B1 the binding [1] was “binds” and the binding [2] was “binds”.
